Experimental data taken from paper doi:10.1101/2022.01.28.478199.
These are yes or no findings as the source states them, for the method shown. In cells and extracts the contact can be indirect. Binding calls can cover weak binding; strength is not graded here.

By UniProt entry, the sequences of proteins in these tests, tags left out. Where a name states a change or a piece, a line headed by the entry shows the natural chain unless it says otherwise. Residues count along the entry.
UniProt P33416: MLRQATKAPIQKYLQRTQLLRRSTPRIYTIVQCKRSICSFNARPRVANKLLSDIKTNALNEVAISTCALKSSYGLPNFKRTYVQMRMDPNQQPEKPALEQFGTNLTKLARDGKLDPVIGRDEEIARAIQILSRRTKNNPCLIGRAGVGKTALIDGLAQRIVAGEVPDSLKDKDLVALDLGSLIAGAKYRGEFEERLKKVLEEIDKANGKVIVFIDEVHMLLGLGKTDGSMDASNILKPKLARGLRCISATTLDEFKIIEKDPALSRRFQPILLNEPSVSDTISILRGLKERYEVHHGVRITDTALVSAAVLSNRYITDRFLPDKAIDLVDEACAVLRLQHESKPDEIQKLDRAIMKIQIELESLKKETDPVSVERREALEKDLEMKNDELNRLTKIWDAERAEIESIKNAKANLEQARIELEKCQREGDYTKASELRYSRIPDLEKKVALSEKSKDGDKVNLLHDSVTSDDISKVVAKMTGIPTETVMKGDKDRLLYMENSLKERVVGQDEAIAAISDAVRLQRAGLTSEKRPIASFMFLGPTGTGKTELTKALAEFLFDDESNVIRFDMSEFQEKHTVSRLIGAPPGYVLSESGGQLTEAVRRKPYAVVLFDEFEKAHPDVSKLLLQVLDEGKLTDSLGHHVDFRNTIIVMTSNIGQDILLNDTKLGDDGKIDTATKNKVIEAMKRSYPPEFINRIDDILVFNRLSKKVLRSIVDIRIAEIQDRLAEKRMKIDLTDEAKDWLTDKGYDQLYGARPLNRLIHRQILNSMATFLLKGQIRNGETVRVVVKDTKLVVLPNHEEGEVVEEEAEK
UniProt P0CS90, residues 24-654: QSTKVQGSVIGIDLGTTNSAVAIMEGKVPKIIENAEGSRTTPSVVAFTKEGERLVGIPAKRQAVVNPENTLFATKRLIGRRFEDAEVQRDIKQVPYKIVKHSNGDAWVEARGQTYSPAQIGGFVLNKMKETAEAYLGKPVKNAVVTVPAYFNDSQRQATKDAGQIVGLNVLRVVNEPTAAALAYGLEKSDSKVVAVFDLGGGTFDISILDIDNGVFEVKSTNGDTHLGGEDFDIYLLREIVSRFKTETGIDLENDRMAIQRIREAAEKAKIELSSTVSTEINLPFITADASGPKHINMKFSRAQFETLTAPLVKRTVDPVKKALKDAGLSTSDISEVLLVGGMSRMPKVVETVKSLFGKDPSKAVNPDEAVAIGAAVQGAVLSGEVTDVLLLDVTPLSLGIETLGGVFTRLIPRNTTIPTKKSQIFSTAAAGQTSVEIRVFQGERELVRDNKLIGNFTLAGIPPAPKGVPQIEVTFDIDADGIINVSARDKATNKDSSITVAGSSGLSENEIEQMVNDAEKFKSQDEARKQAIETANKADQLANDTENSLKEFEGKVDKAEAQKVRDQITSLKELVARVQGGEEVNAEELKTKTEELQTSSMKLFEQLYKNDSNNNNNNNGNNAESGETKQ

Target: Hsp78TR-6xHis (Hsp78 E216Q/E614Q Walker B mutant with a C-terminal 6x polyhistidine-tag) (S. cerevisiae) (UniProt P33416)
Assay: pull-down

binding: binds
Substance: Ssc1 (mtHsp70, main Hsp70 chaperone of the mitochondrial matrix) (from UniProt P0CS90 24-654)
